Measurements taken from PubChem BioAssay AID624297 (National Center for Advancing Translational Sciences (NCATS), 2012).
Where “and” joins values, the source holds several entries; their conditions need not be identical. Identical values can stand only once. Hit rate of the full screen: of about 340,000 compounds, about 6,200 (1.8%) were called active. This list was built around the results that the source calls inconclusive (neither active nor inactive); the mix of calls is not that of the screen. The call rests on the fitted dose curve; in most records, active means well fitted activation curve with a large enough effect; inconclusive means small, poorly fitted or top-dose-only effect; inactive means no such curve, though single readings can be large or run the other way. Where the call is inconclusive, the potency comes from a doubtful curve fit. A structure can be active in one record and inactive in another.

Experiment: A quantitative high throughput screen for small molecules that induce DNA re-replication in SW480 colon adenocarcinoma cells. Further: nearly all actives have a fitted effect of over 55% in size. On re-replication activation: % of control where 0% means no effect.
Conditions: Hoechst DNA content imaging, 48 h; re-replication activation: at 46.1 µM (top of the series)
Procedure, shortened: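 Per well, 250 cells were exposed to pinned compound for 48 hr. Nuclear DNA was visualised with Hoechst (40 min, 37 C) and total object intensity recorded by fluorescence scanning.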
Potency means the concentration at half of the fitted maximal effect.

Compound	Potency	re-replication activation
COC1CCC(OC2CC(C3(C)CCC4(CC(O)C(C)C(C(C)/C=C(\C)C(=O)C(C)CC(C)C(=O)O)O4)O3)OC3(OC(C4OC(O)(CO)C(C)CC4C)CC3C)C2C)OC1C (centres undefined)	inconclusive: 1.03 µM [activator, partial curve, poor fit]	–
COc1ccc(CN2CCN(C(=O)Cc3ccccc3)CC2)cc1Br	inconclusive: 11.6 µM [activator, single point]	–
O=C(CN1CCOCC1)c1ccc(Br)cc1	inconclusive: 29.1 µM [activator, single point]	–
CC1CCC2C(C)C(=O)OC3OC4(C)CCC1C32OO4 (centres undefined)	inactive	–
Nc1ccc2c(c1)Cc1cc([N+](=O)[O-])ccc1-2	inconclusive: 20.6 µM [activator, single point]	–
O=C1C2CC=CCC2C(=O)N1SC(Cl)(Cl)Cl (centres undefined)	active: 6.68 µM	–
O=C(c1ccc(CNS(=O)(=O)c2ccc(Br)cc2)cc1)N1CCC2(CC1)OCCO2	active: 0.58 µM	–
Cc1ccc(Cn2cc(C=O)c3ccccc32)cc1	inconclusive: 14.6 µM [activator, partial curve]	–
CCCCCCCCCCCCCCCC[N+](C)(C)C	inconclusive: 3.76 µM [activator, full curve] and inconclusive: 231 nM [activator, full curve, poor fit]	–
CC(C)Oc1cccc(C(=O)C2CCCN(Cc3ccon3)C2)c1 (centres undefined)	inactive	–
N#CC(C#N)=Cc1cc(O)c(O)c(O)c1	inactive	–
N/C(=N\[N+](=O)[O-])N1CCN(C(=O)c2ccccc2)CC1	inconclusive: 29.1 µM [activator, single point]	–
Cc1ccc2cc(C=C(C#N)C#N)c(Cl)nc2c1	–	inconclusive: 50.3% [activator]
CCCN1CCC(NC2CCC(O)CC2)CC1 (centres undefined)	inconclusive: 14.6 µM [activator, partial curve, poor fit]	–
COc1ccc(OC)c(N=Cc2c(O)n(Cc3ccccc3)c(=S)[nH]c2=O)c1	active: 29.1 µM	–
CCCCC(C)C(OC(=O)CC(CC(=O)O)C(=O)O)C(CC(C)CC(O)CCCCC(O)CC(O)C(C)N)OC(=O)CC(CC(=O)O)C(=O)O (centres undefined)	inconclusive: 29.1 µM [activator, single point]	–
O=C1NCN(c2ccccc2)C12CCN(CCCOc1ccc(F)cc1)CC2	inconclusive: 21.1 µM [activator, partial curve, poor fit]	–
COC1=CC(=O)O[C@@H](/C=C/c2ccccc2)C1	inactive	–
CCc1nc2ccc(N3CCN(C)CC3)cc2nc1CC	inconclusive: 16.4 µM [activator, single point]	–
C[C@@H]1CN([C@@H](C)CO)C(=O)c2cccc(NC(=O)c3ccncc3)c2O[C@@H]1CN(C)Cc1ccc(-c2ccccc2)cc1	inconclusive: 0.116 µM [activator, full curve, poor fit]	–
CN1CCN(c2ccc(S(C)(=O)=O)cc2[N+](=O)[O-])CC1	inactive	–
COc1ccc(Cn2c(=O)oc3ccc(C)cc32)cc1OC	inconclusive: 6.51 µM [activator, single point]	–

Compound	Potency	re-replication activation
COC(=O)C(O)(c1ccc(N(C)C)cc1)C(F)(F)F (centres undefined)	inconclusive: 29.1 µM [activator, single point]	–
COC(=O)C1=C(c2cc3ccccc3o2)C[C@@H]2CC[C@H]1N2C(=O)NCc1ccc(C(F)(F)F)cc1	inconclusive: 29.1 µM [activator, single point]	–
COc1cc(OC)c(OC)cc1/C=C(\C#N)C(=O)NCc1cccs1	inconclusive: 20.6 µM [activator, single point]	–
COc1cc(-n2c(=S)[nH]c3ccc(C)cc3c2=O)c(Cl)cc1Cl	active: 18.4 µM	–
COc1ccc(-c2cc(-c3ccccc3)[n+](C)c(-c3ccccc3)c2)cc1	inconclusive: 29.1 µM [activator, single point]	–
CN(C)c1ccc2c(c1)N=C(c1ccco1)OP2(=S)N1CCOCC1 (centres undefined)	inconclusive: 32.6 µM [activator, single point]	–
Cc1cc(OCC(=O)O)c2c3c(c(=O)oc2c1)CCCC3	inactive	–
Cc1ccc(N2C(=O)NC(=O)/C(=C\c3cc(C)n(-c4sc5c(c4C#N)CCCC5)c3C)C2=O)cc1	inconclusive: 16.4 µM [activator, single point]	–
CC(C)COC(=O)n1c(=O)oc2cc(S(=O)(=O)N3CCCCC3)ccc21	inconclusive: 29.1 µM [activator, single point]	–
COC(=O)C12OCC34C(CC5C(C)=C(O)C(=O)CC5(C)C3C(O)C1O)OC(=O)C(OC(=O)/C=C(\C)C(C)C)C24 (centres undefined)	inconclusive: 0.651 µM [activator, partial curve, poor fit]	–
CN1CC(C(=O)c2ccc(Cl)cc2)C(c2ccc(Cl)cc2Cl)C1 (centres undefined)	inconclusive: 29.1 µM [activator, single point]	–
O=C(O)c1ccc(-[n+]2c(-c3ccccc3)cc(-c3ccccc3)cc2-c2ccccc2)cc1	inactive	–
Cc1nc2ccccc2c(=O)n1-c1ccc(Cl)cc1Cl	inconclusive: 0.461 µM [activator, partial curve, poor fit]	–
FC(F)(F)c1ccc2c(c1)NP(=S)(N1CCOCC1)c1nccn1-2 (centres undefined)	inconclusive: 29.1 µM [activator, single point]	–
O=P(Nc1c(Cl)cccc1Cl)(c1ccccc1)c1nc2c(s1)CCCC2 (centres undefined)	inactive	–
NC1(C(=O)O)CCCc2ccc(N(CCCl)CCCl)cc21 (centres undefined)	inconclusive: 29.1 µM [activator, single point]	–
Cc1ccc(-n2cc(CNC(C)Cc3cnccn3)c(-c3cccc(C)c3)n2)cc1 (centres undefined)	inconclusive: 18.4 µM [activator, single point]	–
Cc1ccc(NC(=O)COC(=O)/C=C/c2ccco2)cc1S(=O)(=O)N(C)C	inconclusive: 0.411 µM [activator, full curve, poor fit]	–
CCCCOC(=O)C1=C(N)OC2=C(C(=O)CCC2)[C@]12C(=O)Nc1ccccc12	inactive	–
Cc1[nH]c2ccc(OC(F)(F)F)cc2c1CCNCc1cccc([N+](=O)[O-])c1	inconclusive: 23.1 µM [activator, single point]	–
COC(=O)c1ccc(CN2CCSC2=N)cc1	inconclusive: 29.1 µM [activator, partial curve, poor fit]	–
CC(Cc1ccccc1)NC=O (centres undefined)	inconclusive: 0.164 µM [activator, full curve, poor fit]	–

Compound	Potency	re-replication activation
CCC12CN3CCN(CC(C3)/C1=N/NC(=O)c1ccncc1)C2	inconclusive: 1.84 µM [activator, full curve, poor fit]	–
O=[N+]([O-])c1c(Cl)c(Cl)c(Cl)c(Cl)c1Cl	inactive	–
COc1cc2c(cc1OC)C1C(=O)c3ccc4c(c3OC1CO2)CC(C(C)C)O4 (centres undefined)	inconclusive: 25.9 µM [activator, single point]	–
COC1=C(OC)[C@]23CCc4ccc(OC)c(OC)c4[C@]2(CCN3C)CC1=O	inconclusive: 0.0058 µM [activator, full curve, poor fit]	–
CC12CCC3c4ccc(OP(=O)(N5CC5)N5CC5)cc4CCC3C1CCC2=O (centres undefined)	inactive	–
Cc1ccc(O)c([C@H](CCN(C(C)C)C(C)C)c2ccccc2)c1	inconclusive: 1.12 µM [activator, full curve, poor fit]	–
CCC(C)NC(=O)c1c(N)n(CCCOC)c2nc3ccccc3nc12 (centres undefined)	active: 7.31 µM	–
CCc1cc2c(s1)NC(=O)CN=C2c1cccs1	inconclusive: 25.9 µM [activator, single point]	–
Cc1ccc(C)c(NP(=O)(Oc2ccccc2)Oc2ccccc2)c1	inactive	–
c1ccc2c(CN3CCCCCCC3)c[nH]c2c1	inconclusive: 29.1 µM [activator, single point]	–
CCOC(=O)c1c(C)n(Cc2ccccc2)c2ccc(OCC(O)CNC(C)(C)C)cc12 (centres undefined)	inconclusive: 20.6 µM [activator, single point]	–
N[C@H](CO)Cc1ccccc1	inconclusive: 0.517 µM [activator, partial curve, poor fit]	–
CN(C)c1ccc(N=Cc2c(O)n(CCC3=CCCCC3)c(=O)[nH]c2=O)cc1	inconclusive: 3.66 µM [activator, single point]	–
Clc1ccc(COC(Cn2ccnc2)c2ccc(Cl)cc2Cl)cc1 (centres undefined)	inconclusive: 8.41 µM [activator, partial curve, poor fit] and inconclusive: 12.4 µM [activator, partial curve, poor fit] and inconclusive: 580 nM [activator, partial curve, poor fit]	–
CCOC(=O)c1ccc(N=C(c2ccccc2)c2c(O)n(C)c(=O)n(C)c2=O)cc1	inconclusive: 29.1 µM [activator, single point]	–
C[C@H]1CCCC(=O)CCCCCc2cc(O)cc(O)c2C(=O)O1	inconclusive: 16.4 µM [activator, single point]	–
COc1ccccc1CCNCc1ccc(OC)c(OC)c1OC	inactive	–
CC(C)(C)c1cc(OC(=O)Cc2ccccc2)ccc1O	inconclusive: 29.1 µM [activator, single point]	–
CC(C)[C@H]1CC2C3CC=C4C[C@@H](O)CC[C@]4(C)C3CC[C@]2(C)[C@H]1O (some centres undefined)	inconclusive: 29.1 µM [activator, single point]	–
c1ccc2c(c1)OCC(C1=NCCN1)O2 (centres undefined)	inactive and inconclusive: 18.8 µM [activator, partial curve] and inconclusive: 32.6 µM [activator, partial curve, poor fit]	–
